Consider one sequence from article PMC7988490, “Molecular insights into replication initiation in a multipartite genome harboring bacterium Deinococcus radiodurans” (The Journal of Biological Chemistry, 2020).

The target of data set [1] is T1, DnaAΔCt (drDnaA without domain IV) (Deinococcus radiodurans R1 (ATCC13939)) (UniProt Q9RYE7).
T1 sequence (looked up, limits assumed): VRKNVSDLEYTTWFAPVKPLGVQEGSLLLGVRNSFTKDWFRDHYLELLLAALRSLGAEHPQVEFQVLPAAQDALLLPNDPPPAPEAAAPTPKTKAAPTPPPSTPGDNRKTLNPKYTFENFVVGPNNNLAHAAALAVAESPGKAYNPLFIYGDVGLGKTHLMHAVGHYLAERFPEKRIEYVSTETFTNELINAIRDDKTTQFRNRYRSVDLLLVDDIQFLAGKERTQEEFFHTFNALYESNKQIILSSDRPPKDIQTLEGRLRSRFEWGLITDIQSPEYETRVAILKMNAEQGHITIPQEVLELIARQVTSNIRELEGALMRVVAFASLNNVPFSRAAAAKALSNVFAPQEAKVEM
Put plainly: EMSA. To be noted: tested with and without ATP; EMSA: 50 mM Tris-HCl pH 8.0, 75 mM KCl, 5 mM MgSO4, 0.1 mM DTT, +/- 1 mM ATP, ~30 nM 32P-DNA, 37 C 15 min; recombinant protein; protein details: N-terminal 6xHis (pET28a); label: 32P 5' end; probe letters rebuilt from the primers and the genome.

For data set [2], the target named is T2, drDnaB (DnaB) (Deinococcus radiodurans R1 (ATCC13939)) (UniProt Q9RWW6).
T2 sequence (looked up, limits assumed): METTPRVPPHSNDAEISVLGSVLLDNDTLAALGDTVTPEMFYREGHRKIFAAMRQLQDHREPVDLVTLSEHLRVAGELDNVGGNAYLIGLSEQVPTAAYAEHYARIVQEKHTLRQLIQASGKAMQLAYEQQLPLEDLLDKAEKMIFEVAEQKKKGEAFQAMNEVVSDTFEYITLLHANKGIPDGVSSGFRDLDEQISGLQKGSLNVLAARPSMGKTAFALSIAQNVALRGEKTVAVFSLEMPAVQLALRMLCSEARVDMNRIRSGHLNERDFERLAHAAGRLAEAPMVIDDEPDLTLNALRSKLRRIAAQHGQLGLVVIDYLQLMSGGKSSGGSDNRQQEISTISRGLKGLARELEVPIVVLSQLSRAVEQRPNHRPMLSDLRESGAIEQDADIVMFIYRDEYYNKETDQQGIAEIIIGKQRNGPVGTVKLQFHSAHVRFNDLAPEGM
Put plainly: EMSA. To be noted: nonspecific, EMSA: 50 mM Tris-HCl pH 8.0, 75 mM KCl, 5 mM MgSO4, 0.1 mM DTT, ~30 nM 32P-DNA, 37 C 15 min, recombinant protein, protein details: N-terminal 6xHis (pET28a), label: 32P 5' end, probe letters rebuilt from the primers and the genome. In general terms: In EMSA bound probe runs differently from free probe, usually more slowly.

For part of these data: No signal at the amounts used counts as a negative. Protein sequences can lack the tags named with them. For part of these data: For at least one entry, the source does not settle the construct or the ends of the probe.

Broadly, the Kd is the free concentration of one partner at which half of the binding sites on the other are occupied at equilibrium, for simple one-to-one binding. Consider “GCGAGCTCCCGTTCCAAATGGCGGTGAAACTTTTCACTTTCTGTGGAAAAACCTGTGGATATCCTGTGGATAAGTGCCAAAATCCTGTGGATAAAATTGTGGATAACTTGCCCCTAAAAATGCCCTGTGGATAACCCCCCAAGTTATCCACAGCTTATCCATCAGGTTTTCGGGGTTATCCACACCCCCTCTGTGGAAAACTTTTGTCCTCTGGGACGGCTTCAAGGTGAGTTTTCCACAGTATCCACAGGCCCTACTACTGCTACTACTGTTTTTATTTTTTAAGAAGAACAGTTAACAGATAGGCCAGGTGACCTTGGGCCTTCCACAAAGGACTCTGGAAAATTCCAAAAGGAGGTTCCGAGTTGAGATCCAACGTGAGGCGTCTCAGGACTGATCGTTCTTCAGATTCCAGACCCGAAGCTCAGAACAATTTCATGTCCAGCACGAAGTTTTCCCCAGGTTGTGGATAAGTTCTGTGGATAAGTCGGGAGTTGGCTGCAAAAACGGATCCCG (double strand) [oriCI 500 bp (13 DnaA boxes)]”, for which, in data set [1], the binding result is listed as “no binding”. The dissociation constant (Kd) was found to be 8.23 µM in data set [2] (1 mM ATP) and 8.89 µM in data set [2] (no ATP, +/- 1 mM ATP).
